Results deposited as PubChem BioAssay AID1224829 (NIAID, 2016)

Assay: 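Secondary check of hits that alter LPS-induced p65 translocation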 (follow-up of hits)
Cell system: mouse RAW264.7 G9 macrophage reporter cells
Reagent: single siRNA against mouse genes, 100 nM
Timing: 2 days of siRNA knock-down, then 40 min of LPS before fixing
Challenge: LPS (Salmonella minnesota R595) at 10 ng/ml
Measured: 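High-content images after 40 min LPS exposure; GFP-p65 nucleus to surrounding ring signal ratio, normalised to plate median and non-targeting control wells, expressed as z-score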
Scale: p65 translocation z-score: higher = more nuclear NF-kappaB p65 after LPS
Call rule: 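An siRNA is called active when the mean z-score of its two replicates is above 2 or below -2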
Meaning of the calls: active = changed p65 translocation (either direction); inactive = no clear change
The whole screen tested about 3,800 reagents; shown is a random part of them. 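Calls cover raised and lowered translocation; gene median uses one vendor's three siRNAs; qiagen siRNAs acted more weakly than ambion siRNAs.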 A number with no mark means an inactive call. The numbers tell different reagents against one gene apart. Not all columns of the deposit are shown.

Zfp747 (GeneID 269997) #1, siRNA vendor or control pool ambion single siRNA gave p65 translocation z-score, replicate mean -1.36.
For Zfp747 (GeneID 269997) #2, siRNA vendor or control pool ambion single siRNA, the entry reads p65 translocation z-score, replicate mean -2.44 (active).
Zfp747 (GeneID 269997) #3, siRNA vendor or control pool ambion single siRNA gave p65 translocation z-score, replicate mean -4.93 (active).
With Zfp747 (GeneID 269997) #4, siRNA vendor or control pool qiagen single siRNA the deposit lists p65 translocation z-score, replicate mean 2.49 (active).
Zfp747 (GeneID 269997) #5, siRNA vendor or control pool qiagen single siRNA scored p65 translocation z-score, replicate mean 0.418.
Zfp747 (GeneID 269997) #6, siRNA vendor or control pool qiagen single siRNA scored p65 translocation z-score, replicate mean 0.833.
With Frey1 (GeneID 75641) #1, siRNA vendor or control pool ambion single siRNA, the entry reads p65 translocation z-score, replicate mean -0.808.
Frey1 (GeneID 75641) #2, siRNA vendor or control pool ambion single siRNA showed p65 translocation z-score, replicate mean -3.19 (active).
Frey1 (GeneID 75641) #3, siRNA vendor or control pool ambion single siRNA gave p65 translocation z-score, replicate mean -5.75 (active).
With Psmb4 (GeneID 19172) #1, siRNA vendor or control pool ambion single siRNA, the values are p65 translocation z-score, replicate mean 1.52.
Psmb4 (GeneID 19172) #2, siRNA vendor or control pool ambion single siRNA showed p65 translocation z-score, replicate mean -1.03.
With Psmb4 (GeneID 19172) #3, siRNA vendor or control pool ambion single siRNA, the values are p65 translocation z-score, replicate mean -3.21 (active).
Psmb4 (GeneID 19172) #4, siRNA vendor or control pool qiagen single siRNA scored p65 translocation z-score, replicate mean -1.8.
For Psmb4 (GeneID 19172) #5, siRNA vendor or control pool qiagen single siRNA the deposit lists p65 translocation z-score, replicate mean -3.46 (active).
Psmb4 (GeneID 19172) #6, siRNA vendor or control pool qiagen single siRNA scored p65 translocation z-score, replicate mean -8.48 (active).
Bok (GeneID 51800) #1, siRNA vendor or control pool ambion single siRNA showed p65 translocation z-score, replicate mean -6.26 (active).
With Bok (GeneID 51800) #2, siRNA vendor or control pool ambion single siRNA, the values are p65 translocation z-score, replicate mean -1.11.
With Bok (GeneID 51800) #3, siRNA vendor or control pool ambion single siRNA, the entry reads p65 translocation z-score, replicate mean -2.4 (active).
With Magi1 (GeneID 14924) #1, siRNA vendor or control pool ambion single siRNA the deposit lists p65 translocation z-score, replicate mean 0.0748.
Magi1 (GeneID 14924) #2, siRNA vendor or control pool ambion single siRNA gave p65 translocation z-score, replicate mean -2.74 (active).
For Magi1 (GeneID 14924) #3, siRNA vendor or control pool ambion single siRNA the deposit lists p65 translocation z-score, replicate mean -0.174.
For Magi1 (GeneID 14924) #4, siRNA vendor or control pool qiagen single siRNA, the values are p65 translocation z-score, replicate mean 3.35 (active).
Magi1 (GeneID 14924) #5, siRNA vendor or control pool qiagen single siRNA scored p65 translocation z-score, replicate mean 1.05.
For Magi1 (GeneID 14924) #6, siRNA vendor or control pool qiagen single siRNA, the entry reads p65 translocation z-score, replicate mean 1.81.

3 entries from above, ordered by “p65 translocation z-score, replicate mean”, low to high:
Magi1 (GeneID 14924) #3, siRNA vendor or control pool ambion single siRNA: p65 translocation z-score, replicate mean = -0.174
Magi1 (GeneID 14924) #5, siRNA vendor or control pool qiagen single siRNA: p65 translocation z-score, replicate mean = 1.05
Magi1 (GeneID 14924) #4, siRNA vendor or control pool qiagen single siRNA: p65 translocation z-score, replicate mean = 3.35 (active)
